Data as given in PubChem BioAssay AID1259424 (University of Nebraska Medical Center, 2018)

- Aim: 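Find knockdowns that reproduce the expression shifts seen after KSR1 loss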 (primary screen)
- System: human HCT116 colon cancer cells
- Reagent: siRNA pool against human genes, 50 nM
- Read-out: 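Six signature mRNAs by branched-DNA multiplex assay, scaled to two housekeeping genes and non-targeting median, log2; matched to mean KSR1 knockdown profile by Pearson correlation and euclidean distance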
- Reading the numbers: mean correlation with KSR1 profile and KSR1 correlation: higher = expression change more like KSR1 knockdown; mean distance from KSR1 profile: higher = expression change less like KSR1 knockdown
Shown is an unselected part of about 14,000 deposited reagents. 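Higher correlation or smaller distance means closer resemblance to KSR1 loss; control wells, including KSR1 knockdowns, recur on many plates.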 Reagent sequences are not shown. Not given: the time to read-out.

| gene | mean correlation with KSR1 profile | mean distance from KSR1 profile | KSR1 correlation, replicate 1 | KSR1 correlation, replicate 2 | KSR1 correlation, replicate 3 |
| --- | --- | --- | --- | --- | --- |
| HOXC9 | 0.416 | 3.22 | 0.231 | 0.102 | 0.655 |
| ERG28 | -0.336 | 2.02 | -0.222 | -0.426 | -0.251 |
| DAP3 | 0.457 | 1.21 | 0.473 | 0.304 | 0.438 |
| SLC16A4 | -0.119 | 2.78 | -0.0351 | -0.126 | -0.0444 |
| CYP21A2 | -0.078 | 3.05 | 0.219 | 0.342 | 0.0668 |
| BSCL2 | -0.466 | 3.15 | -0.376 | -0.591 | -0.414 |
| TP53RK | 0.553 | 1.57 | 0.672 | 0.304 | 0.361 |
| RECQL5 | 0.317 | 1.7 | 0.16 | 0.275 | 0.444 |
| LRP2BP | -0.197 | 3.93 | -0.143 | -0.218 | -0.213 |
| PTCRA | -0.226 | 1.93 | -0.442 | -0.463 | -0.0809 |
| BTG4 | -0.464 | 3.54 | -0.499 | -0.628 | -0.466 |
| TNC | 0.514 | 2.77 | 0.573 | 0.544 | 0.594 |
| XPOT | -0.612 | 3.17 | -0.422 | -0.572 | -0.656 |
| ASTE1 | -0.63 | 2.35 | -0.678 | -0.66 | -0.787 |
| MRS2 | -0.425 | 1.75 | -0.287 | -0.356 | -0.452 |
| GPR142 | -0.385 | 4.3 | -0.344 | -0.502 | -0.427 |
| SIRT4 | -0.532 | 2.92 | -0.448 | -0.52 | -0.519 |
| DUSP12 | -0.0712 | 1.34 | -0.0625 | -0.34 | 0.0514 |
| ADPRS | 0.041 | 3.41 | -0.205 | 0.301 | 0.102 |
| FAU | -0.0404 | 1.53 | 0.0153 | 0.0306 | 0.0287 |
| TIMMDC1 | -0.384 | 1.57 | -0.506 | -0.266 | -0.132 |
| PTN | -0.186 | 2.78 | -0.199 | -0.196 | 0.11 |
| PPP2R5A | -0.543 | 2.41 | -0.369 | -0.692 | -0.658 |
| OR1G1 | 0.108 | 2.43 | 0.274 | 0.135 | 0.17 |
| NELFCD | -0.134 | 3.46 | -0.157 | -0.237 | -0.09 |
| GABRE | 0.246 | 2.91 | 0.343 | 0.133 | 0.268 |
| HMMR | 0.669 | 1.12 | 0.701 | 0.641 | 0.711 |
| PPP3CA | -0.633 | 2.08 | -0.479 | -0.662 | -0.649 |
| MOBP | -0.3 | 1.8 | -0.44 | -0.328 | -0.295 |
| ITPR1 | 0.0787 | 2.69 | 0.128 | 0.0387 | -0.0763 |
| IFT27 | 0.0253 | 2.19 | 0 | 0.0606 | 0.0941 |
| MYO5A | 0.303 | 1.16 | 0.259 | 0.308 | 0.476 |
| MAGEA12 | -0.742 | 2.1 | -0.72 | -0.673 | -0.254 |
| OCIAD1 | -0.347 | 3.36 | -0.0733 | -0.575 | -0.179 |
| APCS | 0.346 | 1.47 | 0.403 | 0.425 | -0.236 |
| MLLT11 | 0.0923 | 1.85 | -0.119 | 0.0316 | 0.487 |
| RHOD | -0.416 | 3.23 | -0.454 | -0.27 | -0.457 |
| LTK | 0.223 | 1.94 | 0.468 | 0.028 | 0.244 |
| KRT82 | -0.0847 | 2.5 | -0.167 | -0.166 | 0.00775 |
| DCN | -0.106 | 1.36 | 0.0894 | -0.0197 | -0.516 |
| ZBTB45 | 0.85 | 0.952 | 0.936 | 0.838 | 0.464 |
| MLLT1 | -0.693 | 2.67 | -0.876 | -0.731 | -0.255 |
| PLXNA2 | -0.00973 | 1.2 | -0.0062 | 0.292 | -0.0945 |
| AREL1 | -0.134 | 2.05 | -0.00365 | -0.478 | 0.0483 |
| BLOC1S6 | -0.44 | 3.59 | -0.227 | -0.642 | -0.464 |
| NTS | 0.262 | 2.67 | 0.37 | 0.154 | 0.224 |
| SYVN1 | 0.694 | 2.87 | 0.564 | 0.704 | 0.491 |
| CADM3 | 0.861 | 1.4 | 0.738 | 0.839 | 0.557 |
| ATP5PF | 0.0692 | 2.98 | -0.0206 | 0.209 | 0.179 |
| FBXL8 | -0.187 | 1.85 | -0.319 | -0.459 | -0.0689 |

An excerpt of the results above:
| gene | mean correlation with KSR1 profile | mean distance from KSR1 profile | KSR1 correlation, replicate 1 | KSR1 correlation, replicate 2 | KSR1 correlation, replicate 3 |
| --- | --- | --- | --- | --- | --- |
| XPOT | -0.612 | 3.17 | -0.422 | -0.572 | -0.656 |
| ASTE1 | -0.63 | 2.35 | -0.678 | -0.66 | -0.787 |
| MRS2 | -0.425 | 1.75 | -0.287 | -0.356 | -0.452 |
| GPR142 | -0.385 | 4.3 | -0.344 | -0.502 | -0.427 |
| SIRT4 | -0.532 | 2.92 | -0.448 | -0.52 | -0.519 |
| DUSP12 | -0.0712 | 1.34 | -0.0625 | -0.34 | 0.0514 |
| ADPRS | 0.041 | 3.41 | -0.205 | 0.301 | 0.102 |
